Measurements published in US20040072285A1 (OREGON HEALTH AND SCIENCE UNIVERSITY, published 2004).
No constants are given. Whether binding was seen depends on the method and setting. For some assays here: Binding seen in cells or lysates may run through a third protein. Some binding calls cover weakened binding; strength is not graded here. For some assays here: Sequences can lack the tags named with a protein.

Protein sequences, listed by entry. Tags and fused reporters are not part of them. Lines headed by an entry give the natural chain unless they say otherwise; changes in a name come on top.
UniProt P0A7C2: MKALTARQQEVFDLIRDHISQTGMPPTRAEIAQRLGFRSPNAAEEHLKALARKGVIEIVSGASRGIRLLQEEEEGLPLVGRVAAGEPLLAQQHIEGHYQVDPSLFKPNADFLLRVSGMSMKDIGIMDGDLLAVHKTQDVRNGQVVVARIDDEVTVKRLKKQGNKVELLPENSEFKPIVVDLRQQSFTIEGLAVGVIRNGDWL

Legend:
[1] = biological target: EGFP::P4.33 fusion protein (human) [GFP: P42212]; test: co-immunoprecipitation, western immunoblot
[2] = biological target: EGFP::P4.33 fusion protein (human) [GFP: P42212]; test: co-immunoprecipitation with anti-EGFP or anti-FLAG M2 antibody
[3] = biological target: EGFP::P4.33 fusion protein (human) [GFP: P42212]; test: colocalization and co-immunoprecipitation in transfected COS-7 cells
[4] = biological target: EGFP::P4.33 fusion protein (human) [GFP: P42212]; test: co-immunoprecipitation with α-FLAG M2 beads or α-GFP antibody, western immunoblot with the opposing antibody
[5] = biological target: T1, P4.33 tagged with FLAG at the C-terminus (P4.33^F) (human) (UniProt Q86XT9); test: western ligand blot of immunoprecipitated IGFBP-3R^F
T1 sequence: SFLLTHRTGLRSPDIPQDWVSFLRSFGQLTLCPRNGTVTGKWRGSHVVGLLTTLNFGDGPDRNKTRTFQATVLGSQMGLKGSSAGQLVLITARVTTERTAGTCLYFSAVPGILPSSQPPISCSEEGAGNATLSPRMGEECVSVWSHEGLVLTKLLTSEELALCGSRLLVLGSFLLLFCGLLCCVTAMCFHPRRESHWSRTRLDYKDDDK

[6] = biological target: T1, P4.33 tagged with FLAG at the C-terminus (P4.33^F) (human); test: monolayer cell-surface binding assay, Hs578T, MCF-7 and Sf9 cells
[7] = biological target: T1, P4.33 tagged with FLAG at the C-terminus (P4.33^F) (human); test: cell-surface binding competed by cold IGFBP-3, transfected Hs578T cells
[8] = biological target: T1, P4.33 tagged with FLAG at the C-terminus (P4.33^F) (human); test: cell-surface binding with unlabelled IGFBP-3 as competitor, transfected Hs578T cells
[9] = biological target: T2, clone 4.33 library cDNA product fused to the GAL4 transcriptional activation domain (yeast two-hybrid prey) (human) (UniProt Q86XT9); test: yeast two-hybrid screen
T2 sequence: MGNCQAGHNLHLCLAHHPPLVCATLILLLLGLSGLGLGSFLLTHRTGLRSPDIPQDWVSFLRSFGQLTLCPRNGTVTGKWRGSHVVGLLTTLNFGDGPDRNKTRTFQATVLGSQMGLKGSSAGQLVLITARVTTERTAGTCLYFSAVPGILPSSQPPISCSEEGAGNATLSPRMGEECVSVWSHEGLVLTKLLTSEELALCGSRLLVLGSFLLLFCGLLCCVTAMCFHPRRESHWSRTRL

[10] = biological target: T2, clone 4.33 library cDNA product fused to the GAL4 transcriptional activation domain (yeast two-hybrid prey) (human); test: yeast two-hybrid screen of an Hs578T cDNA library
[11] = biological target: T2, clone 4.33 library cDNA product fused to the GAL4 transcriptional activation domain (yeast two-hybrid prey) (human); test: yeast two-hybrid, β-galactosidase and mating assays

Measured: binding

FLAG-tagged IGFBP-3 (IGFBP-3^F) (from UniProt P17936 28-291) (ligand)
binds: [1] | [2] | [3] | [4]

Insulin-like Growth Factor Binding Protein-3 (IGFBP-3) (from UniProt P17936 28-291) (ligand)
binds: [5] | [6] | [7] | [8]

IGFBP-3 amino acids 88-148 fused to the LexA DNA binding domain (yeast two-hybrid bait) (from UniProt P0A7C2 1-202; P17936 115-175)
binds: [9] | [10] | [11]
